The record followed here is patent EP4663202A1 (Innovent Biologics (Suzhou) Co., Ltd., dated 2025).

The target in the assay is T1, human VEGFC (human, UniProt P49767 103-227, limits assumed).
T1 sequence (looked up): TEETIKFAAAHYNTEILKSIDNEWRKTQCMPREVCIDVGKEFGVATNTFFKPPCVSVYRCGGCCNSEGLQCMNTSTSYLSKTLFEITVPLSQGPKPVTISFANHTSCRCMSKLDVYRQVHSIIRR
As to the kind of experiment: blocking ELISA, VEGFC-biotin on streptavidin plate, VEGFR3-Fc 0.2 ug/mL.

No constants are given. Whether binding was seen depends on the method and setting. Some entries that bind do so weakly or less than the wild type.

B1: anti-VEGFC antibody am63G12.1-5G8-18B9 (VHH)
VHH: EVQLVESGGGLVQPGGSLRLSCAASGSSFSPYAMGWYRQAPGKQRELVSATSSGGFTLYADSVKGRFTISRDNSKNTVYLQMNSLRAEDTAVYYCYTYYREYDPEMYWGQGTQVTVSS
notes: also called anti-VEGFC humanized VHH antibody
As to B1, the binding result is on record as “binds”.
